Results published in the supplement of paper PMC10849652.
This is one part of the list.

By UniProt entry, the sequences of proteins in these tests, tags left out. Where a name states a change or a piece, a line headed by the entry shows the natural chain unless it says otherwise.
UniProt Q14264: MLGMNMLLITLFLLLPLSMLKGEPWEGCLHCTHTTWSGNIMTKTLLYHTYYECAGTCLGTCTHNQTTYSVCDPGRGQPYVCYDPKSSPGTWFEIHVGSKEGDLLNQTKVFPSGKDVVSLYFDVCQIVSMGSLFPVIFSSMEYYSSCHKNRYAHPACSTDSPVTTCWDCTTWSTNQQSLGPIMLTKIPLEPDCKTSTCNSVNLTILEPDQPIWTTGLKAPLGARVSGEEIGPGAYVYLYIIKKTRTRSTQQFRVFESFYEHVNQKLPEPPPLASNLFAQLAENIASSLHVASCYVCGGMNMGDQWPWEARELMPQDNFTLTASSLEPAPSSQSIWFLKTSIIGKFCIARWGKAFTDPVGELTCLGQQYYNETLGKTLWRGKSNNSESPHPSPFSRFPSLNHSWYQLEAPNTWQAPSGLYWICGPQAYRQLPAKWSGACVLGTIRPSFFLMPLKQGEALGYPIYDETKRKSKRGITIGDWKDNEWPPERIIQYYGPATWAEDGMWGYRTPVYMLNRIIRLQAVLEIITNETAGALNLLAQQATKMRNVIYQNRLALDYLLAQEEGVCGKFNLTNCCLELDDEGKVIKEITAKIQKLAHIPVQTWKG
UniProt Q9P2D6: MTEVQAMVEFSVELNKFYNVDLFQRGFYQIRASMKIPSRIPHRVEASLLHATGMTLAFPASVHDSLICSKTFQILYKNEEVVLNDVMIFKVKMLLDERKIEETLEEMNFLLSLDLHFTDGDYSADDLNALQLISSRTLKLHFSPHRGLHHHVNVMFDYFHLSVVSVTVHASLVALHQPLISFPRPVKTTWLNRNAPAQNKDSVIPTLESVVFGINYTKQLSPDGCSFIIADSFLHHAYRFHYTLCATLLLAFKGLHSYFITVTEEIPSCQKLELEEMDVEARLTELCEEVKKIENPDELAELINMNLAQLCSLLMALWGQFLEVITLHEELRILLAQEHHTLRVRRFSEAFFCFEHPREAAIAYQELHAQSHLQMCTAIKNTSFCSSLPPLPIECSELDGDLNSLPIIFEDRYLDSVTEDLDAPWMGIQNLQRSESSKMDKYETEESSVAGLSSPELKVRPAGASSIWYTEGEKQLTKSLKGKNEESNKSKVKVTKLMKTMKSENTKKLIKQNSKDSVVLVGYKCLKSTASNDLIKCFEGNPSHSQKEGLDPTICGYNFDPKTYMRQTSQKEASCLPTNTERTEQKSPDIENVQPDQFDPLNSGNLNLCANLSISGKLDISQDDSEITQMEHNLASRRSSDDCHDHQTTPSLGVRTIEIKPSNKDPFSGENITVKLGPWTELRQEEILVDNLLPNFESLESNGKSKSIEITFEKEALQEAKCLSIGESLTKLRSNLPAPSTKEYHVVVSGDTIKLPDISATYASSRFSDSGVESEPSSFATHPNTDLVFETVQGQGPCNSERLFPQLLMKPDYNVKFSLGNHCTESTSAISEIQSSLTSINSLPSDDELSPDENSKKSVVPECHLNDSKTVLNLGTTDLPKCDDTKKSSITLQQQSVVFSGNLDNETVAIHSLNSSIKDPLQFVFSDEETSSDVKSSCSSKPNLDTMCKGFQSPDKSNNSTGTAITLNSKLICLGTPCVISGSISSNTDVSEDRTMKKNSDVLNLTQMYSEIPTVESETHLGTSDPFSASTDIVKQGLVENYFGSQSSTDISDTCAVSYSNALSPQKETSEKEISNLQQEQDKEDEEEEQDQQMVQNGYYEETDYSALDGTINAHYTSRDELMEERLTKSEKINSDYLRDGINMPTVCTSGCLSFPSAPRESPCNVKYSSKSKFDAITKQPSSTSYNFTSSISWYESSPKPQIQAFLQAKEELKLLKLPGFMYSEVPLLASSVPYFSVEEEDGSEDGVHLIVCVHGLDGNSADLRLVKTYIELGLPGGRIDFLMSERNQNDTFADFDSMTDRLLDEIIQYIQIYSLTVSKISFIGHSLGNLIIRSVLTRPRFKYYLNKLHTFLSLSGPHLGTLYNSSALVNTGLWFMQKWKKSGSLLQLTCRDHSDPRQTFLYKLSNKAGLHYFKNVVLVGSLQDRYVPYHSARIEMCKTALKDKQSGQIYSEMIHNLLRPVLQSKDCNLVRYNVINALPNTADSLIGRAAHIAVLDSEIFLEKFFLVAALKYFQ
UniProt Q5VUB5: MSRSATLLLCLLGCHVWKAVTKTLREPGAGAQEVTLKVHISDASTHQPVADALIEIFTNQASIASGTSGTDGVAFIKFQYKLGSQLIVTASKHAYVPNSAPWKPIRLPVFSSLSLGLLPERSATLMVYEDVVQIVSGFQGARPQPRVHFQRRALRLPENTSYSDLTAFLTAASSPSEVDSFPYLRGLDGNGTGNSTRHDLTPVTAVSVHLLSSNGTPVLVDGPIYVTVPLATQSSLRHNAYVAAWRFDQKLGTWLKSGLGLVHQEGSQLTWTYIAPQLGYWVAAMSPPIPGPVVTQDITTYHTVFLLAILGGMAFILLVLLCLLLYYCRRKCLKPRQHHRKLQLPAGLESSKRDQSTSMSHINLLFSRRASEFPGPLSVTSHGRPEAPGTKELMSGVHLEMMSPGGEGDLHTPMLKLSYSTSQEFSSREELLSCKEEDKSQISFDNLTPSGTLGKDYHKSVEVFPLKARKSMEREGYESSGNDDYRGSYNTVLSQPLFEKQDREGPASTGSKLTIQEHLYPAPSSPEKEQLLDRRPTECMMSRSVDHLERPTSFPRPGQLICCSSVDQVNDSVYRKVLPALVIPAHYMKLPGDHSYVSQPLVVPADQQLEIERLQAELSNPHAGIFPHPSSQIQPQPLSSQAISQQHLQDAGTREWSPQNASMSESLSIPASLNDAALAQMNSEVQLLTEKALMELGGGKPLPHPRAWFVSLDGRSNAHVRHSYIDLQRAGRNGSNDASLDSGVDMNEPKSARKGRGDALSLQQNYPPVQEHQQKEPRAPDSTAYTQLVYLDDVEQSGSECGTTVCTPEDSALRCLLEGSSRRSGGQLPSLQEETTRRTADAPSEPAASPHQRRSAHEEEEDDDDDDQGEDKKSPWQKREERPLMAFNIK
UniProt Q56NI9: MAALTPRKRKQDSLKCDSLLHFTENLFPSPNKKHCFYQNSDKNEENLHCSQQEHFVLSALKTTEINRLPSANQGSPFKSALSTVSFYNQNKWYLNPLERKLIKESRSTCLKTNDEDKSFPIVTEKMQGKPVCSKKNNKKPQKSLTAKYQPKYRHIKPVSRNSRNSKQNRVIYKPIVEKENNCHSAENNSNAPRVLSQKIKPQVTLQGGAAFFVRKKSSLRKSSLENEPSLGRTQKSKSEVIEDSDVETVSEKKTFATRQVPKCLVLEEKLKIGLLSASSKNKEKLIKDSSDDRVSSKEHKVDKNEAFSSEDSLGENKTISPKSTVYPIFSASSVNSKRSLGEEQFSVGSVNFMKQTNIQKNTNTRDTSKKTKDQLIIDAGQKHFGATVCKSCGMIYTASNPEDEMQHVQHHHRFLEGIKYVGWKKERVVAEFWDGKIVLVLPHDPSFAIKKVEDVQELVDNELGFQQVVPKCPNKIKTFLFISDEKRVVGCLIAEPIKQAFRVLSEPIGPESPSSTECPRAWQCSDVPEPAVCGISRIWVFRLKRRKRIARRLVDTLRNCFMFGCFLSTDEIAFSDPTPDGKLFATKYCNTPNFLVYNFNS
UniProt Q9BVV8: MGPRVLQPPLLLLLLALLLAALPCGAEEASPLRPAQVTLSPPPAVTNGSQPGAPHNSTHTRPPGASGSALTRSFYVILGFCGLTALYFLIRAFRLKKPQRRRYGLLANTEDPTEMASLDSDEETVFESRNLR

Key:
Test in all cases: log2 fold change, soluble protein after heating vs DMSO (PISA); higher = thermal stabilisation; K562 lysate, 10 uM; active = over 0.2 and 3.5 SD of the protein, either way, in both replicates (recomputed)
erlotinib = compound: C#Cc1cccc(Nc2ncnc3cc(OCCOC)c(OCCOC)cc23)c1 [erlotinib]
In short: (§1)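 K562 pellets were dounce-homogenised in PBS pH 7.4 containing 1 mM MgCl2, and the crude extract, at 1 mg/mL protein, was exposed to 10 μM compound for 30 min. Aliquots were heated for 3 min across 48°C-58°C, pooled, brought to 0.5% NP-40 at 4°C and spun at 21,000xg for 90 min, with the supernatant taken as soluble protein. TMTpro 16plex LC-MS/MS with equalised channel sums quantified that protein. Values are log-two fold changes in thermal stability relative to solvent controls, taken from duplicates.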

[1] = compound: C1=CC(=CC=C1C2=NC3=C(N2)C=C(C=C3)C(=O)N)OC4=CC=C(C=C4)Cl
In short: as §1

[2] = compound: C1CCN(C1)C(=O)NC2=CC=CC(=C2)NC3=NC=C(C(=N3)NCCC4=CN=CN4)Br
In short: as §1

[3] = compound: C1CN(CCC1(CC2=CC=C(C=C2)Cl)N)C3=NC=NC4=C3C=CN4
In short: as §1

[4] = compound: CC(C)C1=C2N=C(C=C(N2N=C1)NCC3=CC=CC=C3)NCCCCCCN
In short: as §1

[5] = compound: CC1=C(C2=C(C=C1)C(=O)C3=CC=CC=C3N2CCCN)C
In short: as §1

[6] = compound: CC1=C(C=C(C=C1)NC(=O)C2=CC(=CC=C2)C(C)(C)C#N)NC3=CC4=C(C=C3)N=CN(C4=O)C
In short: as §1

[7] = compound: C1=CC2=NC=CN=C2C=C1/C=C/3\C(=O)NC(=O)S3
In short: as §1

[8] = compound: C1=CC=C(C=C1)C2=NC(=C(N2)C3=CC=NC=C3)C4=CC(=C(C=C4)Cl)O
In short: as §1

IRAK-1-4 Inhibitor I = compound: C1COCCN1CCN2C3=CC=CC=C3N=C2NC(=O)C4=CC(=CC=C4)[N+](=O)[O-] [IRAK-1-4 Inhibitor I]
In short: as §1

ibrutinib = compound: C=CC(=O)N1CCC[C@@H](n2nc(-c3ccc(Oc4ccccc4)cc3)c3c(N)ncnc32)C1 [ibrutinib]
In short: as §1

ralimetinib = compound: CC(C)(C)Cn1c(N)nc2ccc(-c3[nH]c(C(C)(C)C)nc3-c3ccc(F)cc3)nc21 [ralimetinib]
In short: as §1

[9] = compound: CC(C)(O)CC(=O)NCCn1ccc2ncnc(Nc3ccc(Oc4cccc(C(F)(F)F)c4)c(Cl)c3)c21
In short: as §1

[10] = compound: CC1=C(C(CC(=O)N1)C2=CC=C(C=C2)C(F)(F)F)C(=O)NC3=C(C=C4C(=C3)C=NN4)F
In short: as §1

[11] = compound: CC1=C(C=C(C=C1)NC(=O)C2=CC(=CC=C2)N(C)C)NC(=O)C3=CC=C(C=C3)O
In short: as §1

[12] = compound: CC(=O)c1cnc2ccc(-c3cc(Cl)c(O)c(Cl)c3)nc2c1N[C@H]1CC[C@H](CN(C)C)CC1
In short: as §1

[13] = compound: CC1=CC=C(C=C1)SC2=C3C=C(SC3=CN=C2)C(=O)N
In short: as §1

Measured: log2 fold change

ERV3-1 (UniProt Q14264)
inactive: erlotinib -0.196 | [1] -0.088 | [2] 0.146 | [3] 0.037 | [4] 0 | [5] 0.155 | [6] -0.185

FAM135A (UniProt Q9P2D6)
inactive: [7] -0.057 | [8] 0.095 | IRAK-1-4 Inhibitor I 0.048 | ibrutinib -0.052 | ralimetinib 0.027 | [9] -0.071 | [10] -0.35 | [5] -0.097 | [6] -0.005 | [11] -0.041

FAM171A1 (UniProt Q5VUB5)
inactive: erlotinib 0.12 | [1] 0.044 | [8] -0.005 | IRAK-1-4 Inhibitor I 0.074 | [12] 0.157 | ralimetinib -0.004 | [9] -0.053 | [4] -0.107 | [5] 0.056 | [11] 0.103 | [13] -0.264

ESCO2 (UniProt Q56NI9)
inactive: erlotinib -0.118 | [1] 0.031 | [8] 0.12 | [2] 0.145 | [3] 0.085 | IRAK-1-4 Inhibitor I -0.098 | [12] -0.098 | ralimetinib 0.037 | [9] 0.126 | [4] 0.034 | [5] -0.122 | [6] -0.092 | [11] 0.125 | [13] 0.089

FAM174C (UniProt Q9BVV8)
inactive: erlotinib -0.186 | [1] -0.283 | [12] 0.154 | [4] -0.085 | [10] -0.162 | [13] 0.064
